The values below are quoted from earlier work in PubChem BioAssay AID977611.

Shown are results outside the selection of hits, which stands elsewhere. Potency and affinity values are given separately. Active and inactive are the calls of the source. The limit is not given here; nearly all actives have Kd up to about 4200 µM.

The data set is described as follows: PubChem AID 977611. Particulars: PDB protein-ligand complexes, literature Kd; protein: FIBROBLAST GROWTH FACTOR RECEPTOR 1 (FMS-RELATED TYROSINE KINASE 2, PFEIFFER SYNDROME), ISOFORM CRA_B FGFR1; PDB entry 4v05.
Take `COc1cc(CCc2cc(NC(=O)c3ccc(N4C[C@@H](C)N[C@@H](C)C4)cc3)n[nH]2)cc(OC)c1`: the Kd is active: 0.2 nM.

Broadly, the Kd is the constant that tells how readily two partners part at equilibrium.
